{
  "sequences": {"note": "Protein sequences, listed by entry. Tags and fused reporters are not part of them. Lines headed by an entry give the natural chain unless they say otherwise; changes in a name come on top.", "UniProt P51450": "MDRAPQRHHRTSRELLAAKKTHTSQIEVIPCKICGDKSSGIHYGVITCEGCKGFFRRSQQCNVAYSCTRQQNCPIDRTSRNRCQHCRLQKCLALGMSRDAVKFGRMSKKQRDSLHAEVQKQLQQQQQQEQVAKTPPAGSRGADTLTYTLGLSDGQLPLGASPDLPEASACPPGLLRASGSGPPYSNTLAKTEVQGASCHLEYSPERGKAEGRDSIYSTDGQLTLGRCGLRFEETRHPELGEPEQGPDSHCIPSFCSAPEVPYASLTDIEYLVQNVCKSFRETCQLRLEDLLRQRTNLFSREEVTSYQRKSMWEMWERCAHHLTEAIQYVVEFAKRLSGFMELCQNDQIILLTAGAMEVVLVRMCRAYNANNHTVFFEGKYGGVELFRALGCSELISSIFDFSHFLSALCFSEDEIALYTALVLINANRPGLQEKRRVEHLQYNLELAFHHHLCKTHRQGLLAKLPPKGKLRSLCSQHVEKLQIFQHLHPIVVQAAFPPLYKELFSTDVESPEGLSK"},
  "source": "PubChem BioAssay AID2551",
  "about": "(National Center for Advancing Translational Sciences (NCATS), 2010)",
  "note": "Among all 310,000 compounds or so, about 17,000 (5.5%) were called active. The shares of active, inactive and inconclusive entries below differ from those in the screen. Calls follow the shape of the dose curve; as a rule, active = well fitted inhibition curve with a large enough effect; inconclusive = small, poorly fitted or top-dose-only effect, or effect the other way; inactive = no such curve, though single readings can be large or run the other way. Potencies of inconclusive entries are doubtful fits and often do not repeat.",
  "data": [
    {"target": "Nuclear receptor ROR-gamma (Mus musculus) (UniProt P51450)", "test": "qHTS for inhibitors of ROR gamma transcriptional activity; also: nearly all actives have a fitted effect of over 60% in size; also: potency is read from the fitted curve at half-maximal effect; as to activity change, negative = inhibition: % is scaled to controls: 0 for no effect and ±100 for the full control effect", "settings": "Drosophila S2 Gal4-RORgamma UAS-luciferase reporter, 20 h; activity change, negative = inhibition: at 53.6 µM (top of the series)", "method_in_brief": "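Stably transfected Drosophila Schneider cells are the test system, with ROR gamma fused to Gal4 and luciferase under UAS control; luminescence is read after 20 hr of 700 uM copper sulfate induction at ambient temperature.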", "values": [
      {"compound": "CC(C)[C@H](/C=C/C[Si](C)(C)C)[C@H](C)C(O)/C=C/CCCOC(=O)C(C)(C)C", "note": "(stereo partly specified)", "activity change, negative = inhibition": "inactive: -14.5%"},
      {"compound": "O=C(NC(=S)NC1CCSC1=O)c1ccc([N+](=O)[O-])cc1", "note": "(stereo unspecified)", "Potency": "inconclusive: 12.6 µM [inhibitor, partial curve]"},
      {"compound": "CCOc1ccc(NC(=S)N(Cc2ccc(N(C)C)cc2)Cc2ccco2)cc1", "Potency": "inconclusive: 14.1 µM [inhibitor, single point]"},
      {"compound": "S=C(NCCc1ccccn1)Nc1cccc(Cl)c1", "Potency": "active: 5.01 µM"},
      {"compound": "Cc1ccc(C2(C(F)(F)F)N=C3Sc4cc(C)ccc4N3C(=O)N2)cc1", "note": "(stereo unspecified)", "Potency": "inconclusive: 20 µM [inhibitor, single point]"},
      {"compound": "CNC(=S)Nc1ccc(C23CC4CC(CC(C4)C2)C3)cc1", "Potency": "active: 1.58 µM"},
      {"compound": "O=C(CSc1ccc2nnc(-c3ccccn3)n2n1)NCC1CCCO1", "note": "(stereo unspecified)", "Potency": "inconclusive: 35.5 µM [inhibitor, single point]"},
      {"compound": "CC(=O)c1cccc(N=Nc2c(-c3ccccc3)[nH]n(-c3ccccc3)c2=O)c1", "Potency": "inconclusive: 11.2 µM [inhibitor, partial curve]"},
      {"compound": "O=C(Nc1ccc(-c2csc(-c3ccccc3)n2)cc1)c1ccccc1Cl", "activity change, negative = inhibition": "inactive: -9.54%"},
      {"compound": "COc1cccc([C@@H]2Oc3ccc(Br)cc3C(=O)[C@H]2OC(=O)NCCc2ccc(OC)c(OC)c2)c1", "Potency": "inconclusive: 35.5 µM [inhibitor, single point]"},
      {"compound": "O=C1C=C(c2cccs2)C[C@H](c2ccccc2)[C@H]1n1nnc([N+](=O)[O-])n1", "Potency": "inconclusive: 11.2 µM [inhibitor, partial curve]"},
      {"compound": "OC(c1cc(-c2ccc(Cl)cc2)nc2ccccc12)C1CCCCN1", "note": "(stereo unspecified)", "Potency": "inconclusive: 17.8 µM [inhibitor, single point]"},
      {"compound": "O=C(N/N=C\\c1ccco1)c1cncc(Br)c1", "Potency": "inconclusive: 20 µM [inhibitor, single point]"},
      {"compound": "COc1ccc(C(=O)NC(=S)NCC2CCCO2)cc1", "note": "(stereo unspecified)", "Potency": "active: 12.6 µM"},
      {"compound": "NC(=O)c1ccc[n+](CC(=O)c2ccc(NC(=O)c3ccccc3)cc2)c1", "activity change, negative = inhibition": "inactive: 18.9%"},
      {"compound": "CCCCC(=O)NC(=S)Nc1nnn(CCC)n1", "Potency": "active: 0.112 µM"},
      {"compound": "N#Cc1cccc(NC(=O)N2CCCC3(CCN(S(=O)(=O)c4ccccc4)CC3)C2)c1", "activity change, negative = inhibition": "inactive: 10.9%"},
      {"compound": "CCN(CC)c1ccc(N=Nc2nn(C)c(C)c2[N+](=O)[O-])cc1", "Potency": "active: 5.01 µM"},
      {"compound": "CCCn1cnc2cc(NCc3ccc(Br)cc3)ccc21", "Potency": "inconclusive: 35.5 µM [inhibitor, single point]"},
      {"compound": "COc1ccc(-c2nnn(CC(=O)N3CCN(c4ccccc4OC)CC3)n2)cc1", "Potency": "inconclusive: 8.91 µM [activator, partial curve]"},
      {"compound": "Cc1cc2c(cc(C(=O)NCCCN3CCOCC3)n2Cc2ccc(Cl)cc2)o1", "Potency": "inconclusive: 11.2 µM [inhibitor, partial curve, poor fit]"},
      {"compound": "CO[C@H]1COC(=O)[C@H]2CCCN2C(=O)C/C=C\\[C@@H](C)[C@H](OC)COC(=O)[C@@H](OCc2ccccc2)/C=C\\[C@@H]1C", "activity change, negative = inhibition": "inactive: 1.79% [at 10 µM]"},
      {"compound": "S=c1[nH]c(-c2ccccc2)cn1/N=C/c1ccncc1", "Potency": "active: 6.31 µM"},
      {"compound": "CC(C)(C)c1ccc(C(=O)N2CCC(C(=O)NCc3ccco3)CC2)cc1", "Potency": "inconclusive: 20 µM [activator, single point]"},
      {"compound": "Cc1sc2ncnc(N3CCN(C(=O)c4ccco4)CC3)c2c1C", "Potency": "inconclusive: 14.1 µM [activator, single point]"},
      {"compound": "CON/C=N/C(=S)Nc1ncc(C(F)(F)F)cc1Cl", "Potency": "active: 0.562 µM"},
      {"compound": "S=c1[nH]nc(CSc2nc3ccccc3s2)n1Cc1ccccc1", "Potency": "active: 3.98 µM"},
      {"compound": "N#CC(C#N)=NNc1ccc(S(=O)(=O)N2CCCCC2)cc1", "Potency": "inconclusive: 35.5 µM [inhibitor, single point]"},
      {"compound": "CNC(=O)NC(=O)COC(=O)CCCSc1nc2ccccc2s1", "Potency": "inconclusive: 14.1 µM [inhibitor, partial curve]"},
      {"compound": "CC1CCc2c(sc3nc(SCC(=O)NCc4ccco4)nc(N)c23)C1", "note": "(stereo unspecified)", "Potency": "inconclusive: 22.4 µM [activator, partial curve]"},
      {"compound": "Cc1ccc(-n2c(SCC(=O)N3Cc4ccccc4CC3C(=O)O)nnc2-c2cccnc2)c(C)c1", "note": "(stereo unspecified)", "Potency": "inconclusive: 0.112 µM [inhibitor, full curve]"},
      {"compound": "O=C(N/N=C/c1cccn1-c1ccc(O)cc1)c1cccc2ccccc12", "Potency": "active: 17.8 µM"},
      {"compound": "O=C(CNC(=O)c1cccs1)N/N=C/c1ccc(Cl)cc1", "Potency": "inconclusive: 15.8 µM [activator, single point]"},
      {"compound": "CC1CCc2nc(NC(=O)C3COc4ccccc4O3)sc2C1", "note": "(stereo unspecified)", "Potency": "inconclusive: 11.2 µM [inhibitor, partial curve, poor fit]"},
      {"compound": "O=C(Nc1ccc(Oc2cccc3ccccc23)cc1)c1ccco1", "Potency": "inconclusive: 3.16 µM [activator, partial curve]"},
      {"compound": "Cc1cc(SCC#N)n2nc(C)c(-c3ccccc3)c2n1", "Potency": "active: 1.26 µM"},
      {"compound": "O=c1c2cc(Br)ccc2[nH]c(=S)n1Cc1cccnc1", "Potency": "active: 1.12 µM"},
      {"compound": "CCOc1ccc(-c2c(C)n([O-])c3c([n+]2=O)CCCCC3)cc1", "activity change, negative = inhibition": "inactive: -1.41%"},
      {"compound": "O=C(Nc1cccnc1)c1ccc(COCC(F)(F)F)cc1", "Potency": "inconclusive: 6.31 µM [activator, single point]"},
      {"compound": "COc1ccc(CCN=C(N)NS(=O)(=O)c2cc(F)ccc2F)cc1", "activity change, negative = inhibition": "inactive: -5.29%"},
      {"compound": "COc1ccc(/C=N/NC(=O)c2cccnc2)cc1CN1CCCc2ccccc21", "Potency": "active: 10 µM"},
      {"compound": "Cc1cccc(Nc2c(-c3ccc(O)cc3)nc3ncccn23)c1", "activity change, negative = inhibition": "inactive: 1.95%"},
      {"compound": "CCOc1cc(-n2ncc(C#N)c2N)nc(SC)n1", "activity change, negative = inhibition": "inactive: 8.58%"},
      {"compound": "COc1ccccc1CCc1nnc(CCC(=O)NC(C)Cc2cccnc2)o1", "note": "(stereo unspecified)", "activity change, negative = inhibition": "inactive: 20.9%"},
      {"compound": "CCOc1cc(/C=N/NC(=O)c2cc3c(ccc4ccccc43)o2)ccc1O", "Potency": "inconclusive: 20 µM [inhibitor, partial curve, poor fit]"},
      {"compound": "C/C(=N\\Nc1nc(N2CCCCCC2)nc(N2CCCCCC2)n1)c1ccccc1", "Potency": "active: 3.16 µM"},
      {"compound": "COc1ccc(C(=O)Nc2ccccc2C(=O)N2CCN(c3ccccc3)CC2)cc1", "activity change, negative = inhibition": "inactive: 13%"},
      {"compound": "CCN(CC)C(=S)S", "Potency": "inconclusive: 5.62 µM [inhibitor, partial curve, poor fit]"},
      {"compound": "CCOC(=O)C(=CN=C(N)Nc1nc2ccccc2o1)C(=O)OCC", "Potency": "active: 7.08 µM"},
      {"compound": "O=C(CCN1C(=O)/C(=C/c2cccs2)SC1=S)NNC(=O)c1cccc(O)c1", "Potency": "inconclusive: 2.24 µM [inhibitor, full curve]"},
      {"compound": "CCn1c(CNc2ccc(C)cc2)nnc1SCC(N)=O", "Potency": "inconclusive: 0.562 µM [inhibitor, single point]"},
      {"compound": "CC(C)CC(C(=O)NC(C)(C)C)N(Cc1ccccc1Cl)C(=O)c1snc(C(N)=O)c1N", "note": "(stereo unspecified)", "activity change, negative = inhibition": "inactive: -1.44%"},
      {"compound": "O=C(/C(=N\\Nc1ccc(Br)cc1)Sc1nnnn1-c1ccccc1)c1ccccc1", "Potency": "inconclusive: 5.01 µM [inhibitor, single point]"},
      {"compound": "Cc1nn(Cc2ccc(Cl)c(Cl)c2)c(C)c1NC(=O)c1cc(-c2ccc3c(c2)OCO3)on1", "activity change, negative = inhibition": "inactive: 1.3%"},
      {"compound": "COc1ccc(-c2cc(-c3ccc(O)cc3)nc(N)c2C#N)cc1OC", "activity change, negative = inhibition": "inactive: -1.24%"},
      {"compound": "CS(=O)(=O)Nc1cccc2cccnc12", "Potency": "active: 6.31 µM"},
      {"compound": "COc1cc(CNC2CCCCCCC2)cc(Cl)c1OCC(N)=O", "activity change, negative = inhibition": "inactive: -7.28%"},
      {"compound": "Cc1ccc(OCC(=O)N/N=C/c2cccn2C)cc1C", "Potency": "inconclusive: 14.1 µM [inhibitor, single point]"},
      {"compound": "CC(=O)SC1CC(=O)N(c2c(C)cccc2C)C1=O", "note": "(stereo unspecified)", "Potency": "active: 10 µM"},
      {"compound": "Cc1[nH]n(-c2ccccc2)c(=S)c1C=NCCCN=Cc1c(C)[nH]n(-c2ccccc2)c1=S", "Potency": "active: 0.631 µM"},
      {"compound": "O=C(C(c1ccccc1)c1ccccc1)N1CCCc2ccccc21", "Potency": "inconclusive: 10 µM [activator, partial curve]"},
      {"compound": "Cc1ccc(-n2c(-c3cc(C)n(C)n3)n[nH]c2=S)cc1", "Potency": "active: 11.2 µM"},
      {"compound": "Cn1nnnc1SC1CC(=O)N(c2ccccc2)C1=O", "note": "(stereo unspecified)", "Potency": "active: 7.94 µM"},
      {"compound": "O=C1NC(=Nc2cccnc2)S/C1=C/c1ccc(F)cc1", "activity change, negative = inhibition": "inactive: 7.11%"},
      {"compound": "COC(=O)Cc1[nH]n(-c2nc3ccccc3s2)c(=O)c1C(C)=Nc1ccc(C)cc1", "Potency": "inconclusive: 10 µM [inhibitor, partial curve, poor fit]"},
      {"compound": "O=C(N/N=C/c1ccccn1)c1ccc(NC(=O)c2cccc([N+](=O)[O-])c2)cc1", "activity change, negative = inhibition": "inactive: -12.8%"},
      {"compound": "CCOc1ccc(N=c2oc3cc(O)ccc3cc2C(=O)NCC2CCCO2)cc1", "note": "(stereo unspecified)", "Potency": "inconclusive: 8.91 µM [inhibitor, partial curve]"},
      {"compound": "c1ccc(CN2CCC(Nc3nc(-c4cccs4)nc4ccccc34)CC2)cc1", "Potency": "inconclusive: 20 µM [inhibitor, single point]"},
      {"compound": "O=C1CC(N2CCCCCC2)C(=O)N1c1ccc(F)cc1", "note": "(stereo unspecified)", "Potency": "inconclusive: 35.5 µM [inhibitor, single point]"},
      {"compound": "Cc1occc1C(=O)N/N=C/c1cccs1", "Potency": "inconclusive: 31.6 µM [inhibitor, single point]"},
      {"compound": "CCc1ccc(/C=N/NC(=O)c2cc(C)on2)s1", "Potency": "active: 5.62 µM"},
      {"compound": "Cc1cccc(Nc2nnc(SCc3cn4ccsc4n3)s2)c1", "Potency": "inconclusive: 1 µM [inhibitor, single point]"},
      {"compound": "C=C(C)CNC(=S)Nc1cccc2cnccc12", "activity change, negative = inhibition": "inactive: -17.6%"},
      {"compound": "C/C(=N\\N=C1\\NC(=O)CS1)c1cccs1", "Potency": "inconclusive: 22.4 µM [inhibitor, single point]"},
      {"compound": "CCOc1ccc(C(=O)Nc2nnc(SCC(=O)NCC3CCCO3)s2)cc1", "note": "(stereo unspecified)", "Potency": "inconclusive: 8.91 µM [inhibitor, partial curve, poor fit]"},
      {"compound": "CCCc1cc(=O)oc2c3c(cc(OCC(=O)NCCN4CCOCC4)c12)OC(C)(C)CC3", "activity change, negative = inhibition": "inactive: -2.87%"}
    ]}
  ]
}
